# Data from publication PMC7528652, “Xrn1p acts at multiple steps in the budding-yeast RNAi pathway to enhance the efficiency of silencing”.
# What was measured:
# [1] = target: T1, Ago1p (WT) (Naumovozyma castellii) (UniProt D5SHI8); assay: filter binding (nitrocellulose-nylon); conditions: 100 nM Ago1p, 5 mM Mg2+, capped target RNA and tRNA present, no Xrn1p; 50 mM Hepes pH 7.6, 300 mM potassium glutamate, 10 mM NaCl, 5 mM Mg acetate, 1 mM EGTA, 1 mM EDTA, 10% glycerol, 0.01% NP-40, 5 mM DTT, 30 C; recombinant protein; residues 2-1299; label: 32P 5' end of guide strand (S68)
# T1 sequence (looked up): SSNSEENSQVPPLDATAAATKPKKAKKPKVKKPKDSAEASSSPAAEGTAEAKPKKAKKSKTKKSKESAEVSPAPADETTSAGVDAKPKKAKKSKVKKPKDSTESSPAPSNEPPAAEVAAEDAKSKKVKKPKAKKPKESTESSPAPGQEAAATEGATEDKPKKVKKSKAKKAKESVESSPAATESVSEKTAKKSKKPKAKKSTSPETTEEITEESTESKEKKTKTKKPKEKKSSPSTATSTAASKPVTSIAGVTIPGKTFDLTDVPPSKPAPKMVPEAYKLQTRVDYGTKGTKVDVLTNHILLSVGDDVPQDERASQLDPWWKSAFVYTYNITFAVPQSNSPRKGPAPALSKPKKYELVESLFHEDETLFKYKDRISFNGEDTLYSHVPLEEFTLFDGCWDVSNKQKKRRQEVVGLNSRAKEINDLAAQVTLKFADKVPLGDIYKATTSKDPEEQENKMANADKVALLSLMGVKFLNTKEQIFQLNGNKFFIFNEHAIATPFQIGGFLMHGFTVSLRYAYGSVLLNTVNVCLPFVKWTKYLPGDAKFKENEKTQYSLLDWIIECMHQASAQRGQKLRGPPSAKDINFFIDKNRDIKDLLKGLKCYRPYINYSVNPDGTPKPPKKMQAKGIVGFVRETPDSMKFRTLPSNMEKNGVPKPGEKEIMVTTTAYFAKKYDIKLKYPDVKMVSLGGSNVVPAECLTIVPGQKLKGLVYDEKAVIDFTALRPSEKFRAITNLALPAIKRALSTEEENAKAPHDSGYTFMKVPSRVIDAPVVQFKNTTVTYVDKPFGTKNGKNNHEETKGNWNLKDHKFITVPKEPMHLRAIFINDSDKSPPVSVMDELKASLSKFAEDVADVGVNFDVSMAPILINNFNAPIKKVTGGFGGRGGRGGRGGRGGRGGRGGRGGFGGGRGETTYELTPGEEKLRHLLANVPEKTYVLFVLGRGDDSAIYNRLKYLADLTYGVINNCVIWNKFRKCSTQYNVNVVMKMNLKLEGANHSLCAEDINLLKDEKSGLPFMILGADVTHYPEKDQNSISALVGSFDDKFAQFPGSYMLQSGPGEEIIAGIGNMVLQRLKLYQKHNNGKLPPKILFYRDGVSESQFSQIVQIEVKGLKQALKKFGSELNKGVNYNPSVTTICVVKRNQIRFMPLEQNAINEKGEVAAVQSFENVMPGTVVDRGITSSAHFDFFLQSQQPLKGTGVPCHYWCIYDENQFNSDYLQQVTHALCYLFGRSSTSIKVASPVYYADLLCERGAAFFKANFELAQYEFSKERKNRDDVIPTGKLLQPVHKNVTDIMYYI
# [2] = target: T1, Ago1p (WT) (Naumovozyma castellii); assay: pull-down (RISC affinity capture); conditions: RISC loaded with miR-20a guide, eluted with competitor oligo, 300 mM glutamate/NP40 buffer; S72 all 2'-O-methyl RNA; S68 unmodified RNA; 50 mM Hepes pH 7.6, 300 mM potassium glutamate, 10 mM NaCl, 5 mM Mg acetate, 1 mM EGTA, 1 mM EDTA, 10% glycerol, 0.01% NP-40, 5 mM DTT, 30 C; recombinant protein; residues 2-1299; label: 3'-biotin on S72, radiolabelled guide; synthetic backbone
sequence,measurement,setting,value
UAAAGUGCUUAUAGUGCAGGUAG / ACCUGCACUAUAAGCACUUUAAG [miR-20a siRNA duplex],binding result,[1],binds
UAAAGUGCUUAUAGUGCAGGUAG / CUCACCUUCUACACCACCGCACUUUAUCCUUACACAC,binding result,[2],binds

# Construct, isoform or probe ends are uncertain for at least one entry. At least one verdict rests on a figure or table, not on a statement of the authors. Protein sequences can lack the tags named with them.
